# Measurements as given in the supplement of paper PMC6411743.
# ± gives the standard deviation of the averaged measurements. Some of the results follow.
# What was measured:
# Assay in all cases: NP40-soluble protein abundance relative to vehicle (solubility fold change) (ratio); higher = more soluble protein in presence of GTP
# UniProt Q9H993 = target: T1, UniProt Q9H993
# T1 sequence (whole entry): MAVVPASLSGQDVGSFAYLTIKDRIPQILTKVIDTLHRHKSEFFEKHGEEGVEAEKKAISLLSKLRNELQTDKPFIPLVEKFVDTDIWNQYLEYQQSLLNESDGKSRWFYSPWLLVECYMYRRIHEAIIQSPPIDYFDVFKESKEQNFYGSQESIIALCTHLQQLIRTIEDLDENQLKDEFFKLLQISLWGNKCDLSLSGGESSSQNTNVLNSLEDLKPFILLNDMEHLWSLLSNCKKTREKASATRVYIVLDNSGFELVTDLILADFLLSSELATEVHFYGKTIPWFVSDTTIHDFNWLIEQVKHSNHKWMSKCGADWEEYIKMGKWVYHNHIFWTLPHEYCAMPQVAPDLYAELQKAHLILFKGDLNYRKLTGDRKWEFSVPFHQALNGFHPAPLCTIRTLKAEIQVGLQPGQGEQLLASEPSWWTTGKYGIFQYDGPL
# Summary of the method: (§1)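 In three independent experiments, Jurkat crude lysate made by Dounce homogenisation was treated for 10 min at room temperature and then 3 min at 37 °C with eight concentrations ranging from 0.1 to 10 mM. It was then solubilised with 0.8% NP40 plus benzonase for 60 min at 4 °C and ultracentrifuged. The supernatant was TMT-labelled for LC-MS/MS, and each value is the fold change against the detergent-processed vehicle for the same replicate, using vsn-normalised intensities.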
# [1] = target: T2, UniProt Q9H9P8 and related entries
# T2 sequence (whole entry): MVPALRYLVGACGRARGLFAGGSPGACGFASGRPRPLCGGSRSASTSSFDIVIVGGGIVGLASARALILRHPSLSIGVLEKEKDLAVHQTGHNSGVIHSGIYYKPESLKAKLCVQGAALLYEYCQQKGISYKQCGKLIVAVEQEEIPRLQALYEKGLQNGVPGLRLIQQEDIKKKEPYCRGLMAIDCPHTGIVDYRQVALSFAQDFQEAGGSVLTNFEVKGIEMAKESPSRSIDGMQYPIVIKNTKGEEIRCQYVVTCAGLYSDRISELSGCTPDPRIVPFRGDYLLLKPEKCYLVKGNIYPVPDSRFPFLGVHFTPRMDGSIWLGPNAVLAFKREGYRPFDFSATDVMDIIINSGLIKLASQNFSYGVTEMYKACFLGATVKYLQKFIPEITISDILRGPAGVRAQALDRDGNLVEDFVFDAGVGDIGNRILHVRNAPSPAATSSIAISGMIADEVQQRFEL
# Summary of the method: as §1
# UniProt Q9HCC0-2|Q9HCC0 = target: T3, UniProt Q9HCC0-2|Q9HCC0
# T3 sequence (whole entry): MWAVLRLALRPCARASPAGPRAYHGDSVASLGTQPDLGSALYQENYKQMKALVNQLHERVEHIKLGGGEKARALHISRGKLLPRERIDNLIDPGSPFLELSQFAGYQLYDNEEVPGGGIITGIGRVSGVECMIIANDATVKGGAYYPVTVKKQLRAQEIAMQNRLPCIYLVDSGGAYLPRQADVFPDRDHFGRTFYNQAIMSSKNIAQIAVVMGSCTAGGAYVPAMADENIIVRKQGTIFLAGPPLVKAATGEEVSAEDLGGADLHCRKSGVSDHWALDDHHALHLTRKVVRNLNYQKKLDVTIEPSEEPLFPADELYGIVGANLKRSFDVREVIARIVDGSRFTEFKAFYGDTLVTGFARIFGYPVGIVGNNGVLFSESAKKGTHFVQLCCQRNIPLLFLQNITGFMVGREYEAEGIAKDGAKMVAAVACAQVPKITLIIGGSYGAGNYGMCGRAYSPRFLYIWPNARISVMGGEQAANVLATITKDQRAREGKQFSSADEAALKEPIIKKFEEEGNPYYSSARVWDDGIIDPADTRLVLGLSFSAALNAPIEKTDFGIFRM
# Summary of the method: as §1
# [2] = target: T4, UniProt Q9NPI1 and related entries
# T4 sequence (whole entry): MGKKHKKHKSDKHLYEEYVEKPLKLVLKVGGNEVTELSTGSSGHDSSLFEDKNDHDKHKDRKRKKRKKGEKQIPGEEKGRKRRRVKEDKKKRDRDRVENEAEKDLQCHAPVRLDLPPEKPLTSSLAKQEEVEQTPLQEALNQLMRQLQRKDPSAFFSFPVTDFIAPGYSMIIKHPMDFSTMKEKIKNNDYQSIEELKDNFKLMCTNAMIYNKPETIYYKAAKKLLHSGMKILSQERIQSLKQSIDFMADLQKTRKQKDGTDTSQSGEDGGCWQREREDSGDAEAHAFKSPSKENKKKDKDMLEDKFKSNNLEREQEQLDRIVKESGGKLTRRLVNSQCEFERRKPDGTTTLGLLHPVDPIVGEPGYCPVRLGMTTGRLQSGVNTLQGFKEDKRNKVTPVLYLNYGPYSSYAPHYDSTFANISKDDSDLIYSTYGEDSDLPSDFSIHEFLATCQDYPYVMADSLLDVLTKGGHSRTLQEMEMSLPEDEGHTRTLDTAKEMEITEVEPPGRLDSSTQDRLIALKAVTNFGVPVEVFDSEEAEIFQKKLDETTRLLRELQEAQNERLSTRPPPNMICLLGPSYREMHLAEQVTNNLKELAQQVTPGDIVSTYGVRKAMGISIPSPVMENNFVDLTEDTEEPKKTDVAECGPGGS
# Summary of the method: as §1
# [3] = target: T5, UniProt Q9NSC5 and related entries
# T5 sequence (whole entry): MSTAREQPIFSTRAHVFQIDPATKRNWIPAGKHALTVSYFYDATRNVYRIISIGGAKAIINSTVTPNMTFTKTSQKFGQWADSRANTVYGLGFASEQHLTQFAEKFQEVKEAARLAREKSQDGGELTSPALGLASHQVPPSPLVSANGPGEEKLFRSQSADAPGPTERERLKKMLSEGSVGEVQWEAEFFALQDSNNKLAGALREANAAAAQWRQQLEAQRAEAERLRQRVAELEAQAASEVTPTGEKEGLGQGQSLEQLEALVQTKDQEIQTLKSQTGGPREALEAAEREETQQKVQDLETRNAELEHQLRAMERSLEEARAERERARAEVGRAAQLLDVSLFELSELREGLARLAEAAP
# Summary of the method: as §1
compound,measurement,setting,value
Nc1nc2c(ncn2[C@@H]2O[C@H](COP(=O)(O)OP(=O)(O)OP(=O)(O)O)[C@@H](O)[C@H]2O)c(=O)[nH]1 [guanosine triphosphate],NP40-soluble protein abundance,UniProt Q9H993; concentration: 8mM,0.832 ± 0.12
same,NP40-soluble protein abundance,UniProt Q9H993; concentration: 10mM,0.814 ± 0.11
same,NP40-soluble protein abundance,[1]; concentration: 0.1mM,1.03 ± 0.034
same,NP40-soluble protein abundance,[1]; concentration: 0.5mM,0.9756 ± 0.0053
same,NP40-soluble protein abundance,[1]; concentration: 1mM,0.986 ± 0.034
same,NP40-soluble protein abundance,[1]; concentration: 2mM,0.9648 ± 0.0067
same,NP40-soluble protein abundance,[1]; concentration: 4mM,0.954 ± 0.05
same,NP40-soluble protein abundance,[1]; concentration: 6mM,0.917 ± 0.02
same,NP40-soluble protein abundance,[1]; concentration: 8mM,0.925 ± 0.032
same,NP40-soluble protein abundance,[1]; concentration: 10mM,0.895 ± 0.011
same,NP40-soluble protein abundance,UniProt Q9HCC0-2|Q9HCC0; concentration: 0.1mM,1.05 ± 0.091
same,NP40-soluble protein abundance,UniProt Q9HCC0-2|Q9HCC0; concentration: 0.5mM,1.07 ± 0.065
same,NP40-soluble protein abundance,UniProt Q9HCC0-2|Q9HCC0; concentration: 1mM,1.03 ± 0.087
same,NP40-soluble protein abundance,UniProt Q9HCC0-2|Q9HCC0; concentration: 2mM,1.05 ± 0.064
same,NP40-soluble protein abundance,UniProt Q9HCC0-2|Q9HCC0; concentration: 4mM,1.05 ± 0.1
same,NP40-soluble protein abundance,UniProt Q9HCC0-2|Q9HCC0; concentration: 6mM,1.05 ± 0.09
same,NP40-soluble protein abundance,UniProt Q9HCC0-2|Q9HCC0; concentration: 8mM,1.05 ± 0.074
same,NP40-soluble protein abundance,UniProt Q9HCC0-2|Q9HCC0; concentration: 10mM,1.02 ± 0.081
same,NP40-soluble protein abundance,[2]; concentration: 0.1mM,1.09 ± 0.029
same,NP40-soluble protein abundance,[2]; concentration: 0.5mM,1.11 ± 0.036
same,NP40-soluble protein abundance,[2]; concentration: 1mM,1.22 ± 0.041
same,NP40-soluble protein abundance,[2]; concentration: 2mM,1.36 ± 0.098
same,NP40-soluble protein abundance,[2]; concentration: 4mM,1.4 ± 0.18
same,NP40-soluble protein abundance,[2]; concentration: 6mM,1.47 ± 0.2
same,NP40-soluble protein abundance,[2]; concentration: 8mM,1.58 ± 0.32
same,NP40-soluble protein abundance,[2]; concentration: 10mM,1.56 ± 0.28
same,NP40-soluble protein abundance,[3]; concentration: 0.1mM,1.04 ± 0.058
same,NP40-soluble protein abundance,[3]; concentration: 0.5mM,1.01 ± 0.042
same,NP40-soluble protein abundance,[3]; concentration: 1mM,1.07 ± 0.068
same,NP40-soluble protein abundance,[3]; concentration: 2mM,1.11 ± 0.062
same,NP40-soluble protein abundance,[3]; concentration: 4mM,1.12 ± 0.067
same,NP40-soluble protein abundance,[3]; concentration: 6mM,1.09 ± 0.12
same,NP40-soluble protein abundance,[3]; concentration: 8mM,1.04 ± 0.11
same,NP40-soluble protein abundance,[3]; concentration: 10mM,1.11 ± 0.091

# Laid out differently: entries from further up
compound	measurement	setting	value
Nc1nc2c(ncn2[C@@H]2O[C@H](COP(=O)(O)OP(=O)(O)OP(=O)(O)O)[C@@H](O)[C@H]2O)c(=O)[nH]1 [guanosine triphosphate]	NP40-soluble protein abundance	UniProt Q9H993; concentration: 10mM	0.814 ± 0.11
same	NP40-soluble protein abundance	UniProt Q9HCC0-2|Q9HCC0; concentration: 1mM	1.03 ± 0.087
same	NP40-soluble protein abundance	UniProt Q9HCC0-2|Q9HCC0; concentration: 2mM	1.05 ± 0.064
same	NP40-soluble protein abundance	UniProt Q9HCC0-2|Q9HCC0; concentration: 6mM	1.05 ± 0.09
same	NP40-soluble protein abundance	UniProt Q9HCC0-2|Q9HCC0; concentration: 8mM	1.05 ± 0.074
same	NP40-soluble protein abundance	[2]; concentration: 0.1mM	1.09 ± 0.029
same	NP40-soluble protein abundance	[2]; concentration: 2mM	1.36 ± 0.098
same	NP40-soluble protein abundance	[2]; concentration: 6mM	1.47 ± 0.2
same	NP40-soluble protein abundance	[3]; concentration: 4mM	1.12 ± 0.067
